# Laboratory results: the supplement of paper PMC8728848
# Some of the results follow.
# B1: MFG-E8 (Homo sapiens), Q08431 (protein)
# chain: MPRPRLLAALCGALLCAPSLLVALDICSKNPCHNGGLCEEISQEVRGDVFPSYTCTCLKGYAGNHCETKCVEPLGLENGNIANSQIAASSVRVTFLGLQHWVPELARLNRAGMVNAWTPSSNDDNPWIQVNLLRRMWVTGVVTQGASRLASHEYLKAFKVAYSLNGHEFDFIHDVNKKHKEFVGNWNKNAVHVNLFETPVEAQYVRLYPTSCHTACTLRFELLGCELNGCANPLGLKNNSIPDKQITASSSYKTWGLHLFSWNPSYARLDKQGNFNAWVAGSYGNDQWLQVDLGSSKEVTGIITQGARNFGSVQFVASYKVAYSNDSANWTEYQDPRTGSSKIFPGNWDNHSHKKNLFETPILARYVRILPVAWHNRIALRLELLGC
# What was measured:
# Test in all cases: glycan array binding signal (z-score within array); higher = stronger binding
# Settings in all cases: glycan notation: IUPAC condensed, linker removed
# [1] = molecular target: Man(a1-2)Man(a1-3)[Man(a1-6)]Man(a1-6)[Man(a1-2)Man(a1-3)]Man(b1-4)GlcNAc(b1-4)GlcNAc
# Summary of the method: (§1)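 The binding signal is a Z-score computed within each array and averaged over linkers. Arrays of the same protein sequence at different concentrations or buffers were also averaged together. Data originate from 3228 arrays in the Consortium for Functional Glycomics database, kept only where the protein sequence was available.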
# [2] = molecular target: Man(a1-2)Man(a1-6)[Man(a1-3)]Man(a1-6)[Man(a1-2)Man(a1-2)Man(a1-3)]Man
# Summary of the method: as §1
# [3] = molecular target: Man(a1-2)Man(a1-6)[Man(a1-3)]Man(a1-6)[Man(a1-2)Man(a1-2)Man(a1-3)]Man(b1-4)GlcNAc(b1-4)GlcNAc
# Summary of the method: as §1
# Man(a1-3)[Man(a1-6)]Man = molecular target: Man(a1-3)[Man(a1-6)]Man
# Summary of the method: as §1
# [4] = molecular target: Man(a1-3)[Man(a1-6)]Man(a1-6)[Man(a1-2)Man(a1-3)]Man(b1-4)GlcNAc(b1-4)GlcNAc
# Summary of the method: as §1
# [5] = molecular target: Man(a1-3)[Man(a1-6)]Man(a1-6)[Man(a1-3)]Man
# Summary of the method: as §1
# [6] = molecular target: Man(a1-3)[Man(a1-6)]Man(a1-6)[Man(a1-3)]Man(b1-4)GlcNAc(b1-4)GlcNAc
# Summary of the method: as §1
# [7] = molecular target: Man(a1-3)[Man(a1-6)]Man(b1-4)GlcNAc(b1-4)GlcNAc
# Summary of the method: as §1
# Man(a1-6)Man = molecular target: Man(a1-6)Man
# Summary of the method: as §1
# Man(b1-4)GlcNAc = molecular target: Man(b1-4)GlcNAc
# Summary of the method: as §1
# Neu5Ac(a2-3)Gal = molecular target: Neu5Ac(a2-3)Gal
# Summary of the method: as §1
# [8] = molecular target: Neu5Ac(a2-3)Gal(b1-3)GalNAc
# Summary of the method: as §1
# [9] = molecular target: Neu5Ac(a2-3)Gal(b1-3)GalNAc(b1-3)Gal(a1-4)Gal(b1-4)Glc
# Summary of the method: as §1
# [10] = molecular target: Neu5Ac(a2-3)Gal(b1-3)GalNAc(b1-4)[Neu5Ac(a2-3)]Gal(b1-4)Glc
# Summary of the method: as §1
# [11] = molecular target: Neu5Ac(a2-3)Gal(b1-3)GalNAc(b1-4)[Neu5Ac(a2-8)Neu5Ac(a2-3)]Gal(b1-4)Glc
# Summary of the method: as §1
# [12] = molecular target: Neu5Ac(a2-3)Gal(b1-3)GalNAc6S
# Summary of the method: as §1
# [13] = molecular target: Neu5Ac(a2-3)Gal(b1-3)GlcNAc
# Summary of the method: as §1
# [14] = molecular target: Neu5Ac(a2-3)Gal(b1-3)GlcNAc(b1-3)Gal(b1-3)GlcNAc
# Summary of the method: as §1
# [15] = molecular target: Neu5Ac(a2-3)Gal(b1-3)GlcNAc(b1-3)Gal(b1-4)GlcNAc
# Summary of the method: as §1
# [16] = molecular target: Neu5Ac(a2-3)Gal(b1-3)GlcNAc(b1-3)GalNAc
# Summary of the method: as §1
# [17] = molecular target: Neu5Ac(a2-3)Gal(b1-3)GlcNAc6S
# Summary of the method: as §1
# [18] = molecular target: Neu5Ac(a2-3)Gal(b1-3)[Fuc(a1-4)]GlcNAc
# Summary of the method: as §1
# [19] = molecular target: Neu5Ac(a2-3)Gal(b1-3)[Fuc(a1-4)]GlcNAc(b1-3)Gal(b1-3)[Fuc(a1-4)]GlcNAc
# Summary of the method: as §1
# [20] = molecular target: Neu5Ac(a2-3)Gal(b1-3)[Fuc(a1-4)]GlcNAc(b1-3)Gal(b1-4)[Fuc(a1-3)]GlcNAc
# Summary of the method: as §1
# [21] = molecular target: Neu5Ac(a2-3)Gal(b1-3)[Neu5Ac(a2-3)Gal(b1-4)]GlcNAc
# Summary of the method: as §1
# [22] = molecular target: Neu5Ac(a2-3)Gal(b1-3)[Neu5Ac(a2-6)]GalNAc
# Summary of the method: as §1
# Neu5Ac(a2-3)Gal(b1-4)Glc = molecular target: Neu5Ac(a2-3)Gal(b1-4)Glc
# Summary of the method: as §1
# [23] = molecular target: Neu5Ac(a2-3)Gal(b1-4)GlcNAc
# Summary of the method: as §1
# [24] = molecular target: Neu5Ac(a2-3)Gal(b1-4)GlcNAc(b1-2)Man(a1-3)[GlcNAc(b1-2)Man(b1-4)GlcNAc(b1-2)Man(a1-6)]Man(b1-4)GlcNAc(b1-4)GlcNAc
# Summary of the method: as §1
# [25] = molecular target: Neu5Ac(a2-3)Gal(b1-4)GlcNAc(b1-2)Man(a1-3)[Neu5Ac(a2-6)Gal(b1-4)GlcNAc(b1-2)Man(a1-6)]Man(b1-4)GlcNAc(b1-4)GlcNAc
# Summary of the method: as §1
# [26] = molecular target: Neu5Ac(a2-3)Gal(b1-4)GlcNAc(b1-3)Gal
# Summary of the method: as §1
# [27] = molecular target: Neu5Ac(a2-3)Gal(b1-4)GlcNAc(b1-3)Gal(b1-3)GlcNAc
# Summary of the method: as §1
# [28] = molecular target: Neu5Ac(a2-3)Gal(b1-4)GlcNAc(b1-3)Gal(b1-4)GlcNAc
# Summary of the method: as §1
# [29] = molecular target: Neu5Ac(a2-3)Gal(b1-4)GlcNAc(b1-3)Gal(b1-4)GlcNAc(b1-3)Gal(b1-4)GlcNAc
# Summary of the method: as §1
# [30] = molecular target: Neu5Ac(a2-3)Gal(b1-4)GlcNAc(b1-3)Gal(b1-4)[Fuc(a1-3)]GlcNAc
# Summary of the method: as §1
# [31] = molecular target: Neu5Ac(a2-3)Gal(b1-4)GlcNAc(b1-3)GalNAc
# Summary of the method: as §1
# [32] = molecular target: Neu5Ac(a2-3)Gal(b1-4)GlcNAc(b1-6)[Gal(b1-3)]GalNAc
# Summary of the method: as §1
# [33] = molecular target: Neu5Ac(a2-3)Gal(b1-4)GlcNAc(b1-6)[Neu5Ac(a2-3)Gal(b1-3)]GalNAc
# Summary of the method: as §1
# [34] = molecular target: Neu5Ac(a2-3)Gal(b1-4)GlcNAc6S
# Summary of the method: as §1
# [35] = molecular target: Neu5Ac(a2-3)Gal(b1-4)[Fuc(a1-3)]GlcNAc
# Summary of the method: as §1
# [36] = molecular target: Neu5Ac(a2-3)Gal(b1-4)[Fuc(a1-3)]GlcNAc(b1-3)Gal
# Summary of the method: as §1
# [37] = molecular target: Neu5Ac(a2-3)Gal(b1-4)[Fuc(a1-3)]GlcNAc(b1-3)Gal(b1-4)GlcNAc
# Summary of the method: as §1
# [38] = molecular target: Neu5Ac(a2-3)Gal(b1-4)[Fuc(a1-3)]GlcNAc(b1-3)Gal(b1-4)[Fuc(a1-3)]GlcNAc(b1-3)Gal(b1-4)[Fuc(a1-3)]GlcNAc
# Summary of the method: as §1
# [39] = molecular target: Neu5Ac(a2-3)Gal(b1-4)[Fuc(a1-3)]GlcNAc(b1-3)GalNAc
# Summary of the method: as §1
# [40] = molecular target: Neu5Ac(a2-3)Gal(b1-4)[Fuc(a1-3)]GlcNAc(b1-6)[Gal(b1-3)]GalNAc
# Summary of the method: as §1
# [41] = molecular target: Neu5Ac(a2-3)Gal(b1-4)[Fuc(a1-3)]GlcNAc6S
# Summary of the method: as §1
# [42] = molecular target: Neu5Ac(a2-3)Gal6S(b1-4)GlcNAc
# Summary of the method: as §1
# [43] = molecular target: Neu5Ac(a2-3)Gal6S(b1-4)[Fuc(a1-3)]GlcNAc
# Summary of the method: as §1
# Neu5Ac(a2-3)GalNAc = molecular target: Neu5Ac(a2-3)GalNAc
# Summary of the method: as §1
# [44] = molecular target: Neu5Ac(a2-3)GalNAc(b1-4)GlcNAc
# Summary of the method: as §1
binder,measurement,setting,value
B1,glycan array binding signal (z-score),[1],0.21
same,glycan array binding signal (z-score),[2],-0.646
same,glycan array binding signal (z-score),[3],2.16
same,glycan array binding signal (z-score),Man(a1-3)[Man(a1-6)]Man,-0.147
same,glycan array binding signal (z-score),[4],-0.553
same,glycan array binding signal (z-score),[5],-0.594
same,glycan array binding signal (z-score),[6],0.033
same,glycan array binding signal (z-score),[7],-0.603
same,glycan array binding signal (z-score),Man(a1-6)Man,-0.084
same,glycan array binding signal (z-score),Man(b1-4)GlcNAc,-0.797
same,glycan array binding signal (z-score),Neu5Ac(a2-3)Gal,-0.156
same,glycan array binding signal (z-score),[8],0.131
same,glycan array binding signal (z-score),[9],-0.564
same,glycan array binding signal (z-score),[10],1.61
same,glycan array binding signal (z-score),[11],0.242
same,glycan array binding signal (z-score),[12],-0.535
same,glycan array binding signal (z-score),[13],0.027
same,glycan array binding signal (z-score),[14],-0.639
same,glycan array binding signal (z-score),[15],-0.288
same,glycan array binding signal (z-score),[16],-0.168
same,glycan array binding signal (z-score),[17],-0.521
same,glycan array binding signal (z-score),[18],-0.532
same,glycan array binding signal (z-score),[19],1.24
same,glycan array binding signal (z-score),[20],-0.483
same,glycan array binding signal (z-score),[21],-0.722
same,glycan array binding signal (z-score),[22],-0.174
same,glycan array binding signal (z-score),Neu5Ac(a2-3)Gal(b1-4)Glc,0.001
same,glycan array binding signal (z-score),[23],-0.075
same,glycan array binding signal (z-score),[24],0.027
same,glycan array binding signal (z-score),[25],-0.677
same,glycan array binding signal (z-score),[26],0.052
same,glycan array binding signal (z-score),[27],-0.113
same,glycan array binding signal (z-score),[28],1.58
same,glycan array binding signal (z-score),[29],0.523
same,glycan array binding signal (z-score),[30],-0.618
same,glycan array binding signal (z-score),[31],0.039
same,glycan array binding signal (z-score),[32],-0.167
same,glycan array binding signal (z-score),[33],-0.722
same,glycan array binding signal (z-score),[34],0.461
same,glycan array binding signal (z-score),[35],-0.45
same,glycan array binding signal (z-score),[36],-0.206
same,glycan array binding signal (z-score),[37],-0.126
same,glycan array binding signal (z-score),[38],-0.601
same,glycan array binding signal (z-score),[39],0.349
same,glycan array binding signal (z-score),[40],1.09
same,glycan array binding signal (z-score),[41],1.71
same,glycan array binding signal (z-score),[42],-0.144
same,glycan array binding signal (z-score),[43],-0.252
same,glycan array binding signal (z-score),Neu5Ac(a2-3)GalNAc,-0.592
same,glycan array binding signal (z-score),[44],-0.032

# Reformatted tab-delimited: part of the list above.
binder	measurement	setting	value
B1	glycan array binding signal (z-score)	[25]	-0.677
same	glycan array binding signal (z-score)	[29]	0.523
same	glycan array binding signal (z-score)	[36]	-0.206
